# Some of the results follow.
# Sequences of proteins named here, by UniProt entry; tags and fusion partners are left off.
# UniProt Q0JBA9, entry or part of it: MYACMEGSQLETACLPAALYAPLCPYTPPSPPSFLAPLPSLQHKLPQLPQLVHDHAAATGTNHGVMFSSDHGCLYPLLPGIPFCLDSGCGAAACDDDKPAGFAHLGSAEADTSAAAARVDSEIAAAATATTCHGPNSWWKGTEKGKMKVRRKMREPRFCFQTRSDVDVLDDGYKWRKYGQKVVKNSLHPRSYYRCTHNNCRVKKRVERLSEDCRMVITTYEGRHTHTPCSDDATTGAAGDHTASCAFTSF
# Biological target: OsWRKY34 (Oryza sativa, UniProt Q0JBA9 1-250)
# Assay: protein-binding microarray (RPBM); PBS, 2% BSA, 51.3 ng/ul salmon testes DNA, 50 uM zinc acetate, 200 nM TF, 25 C, 1 h; high values mean tight binding
# Conditions: protein: recombinant; tags: N-terminal polyhistidine and DsRed monomer fusion (pET32a); label: CyDye5-dUTP incorporated in the synthesized complementary strand; 3' TTTTT single-stranded linker to array surface; dsDNA, one strand shown
# How it was run: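 Per-feature fluorescence intensity (arbitrary units), read on an Axon 4000B scanner, is the binding signal. Transcription factors carrying an N-terminal polyhistidine tag and DsRed fusion were expressed in E. coli BL21-CodonPlus and purified on Ni–NTA. A custom Agilent array, made double-stranded by primer extension with Cy5-dUTP and blocked with 2% BSA, was incubated with 200 nM protein in PBS, 2% BSA, salmon testes DNA and 50 µM zinc acetate at 25 °C for 1 h and then washed.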
row,Sequence,binding signal
1,GTCCTTGTCTCTGCTCTGCCCCGCGCAATTAACTCTGCACCGGAGTCACCTAGTGCAG,11000 fluorescence intensity (a.u.)
2,TTCGGGCCACCGCCTTGCGATTTTCCCATAGCCCCAGAGTCGGAGTCACCTAGTGCAG,8250 fluorescence intensity (a.u.)
3,GCTTTTACTTAAACTGATTGGTGCTGATGGGTATGTTTGTCGGAGTCACCTAGTGCAG,8520 fluorescence intensity (a.u.)
4,TCATCCATCAGATATCCTCCACGTGTTGTCCTCGATCCCGCGGAGTCACCTAGTGCAG,9070 fluorescence intensity (a.u.)
5,AGGCGGAGAAAAGAGGGAGGGAGGGAGTGTGGACGTCTGACGGAGTCACCTAGTGCAG,9530 fluorescence intensity (a.u.)
6,TCCACCTCATCATTATTCAGTGCAATGCACATACATTTTACGGAGTCACCTAGTGCAG,8590 fluorescence intensity (a.u.)
7,TACTCCTGCATTGCTCTACAATTTTTGGGTCATGTAATTTCGGAGTCACCTAGTGCAG,9490 fluorescence intensity (a.u.)
8,GGTTATCTCAAATATTGTACTTGTGTGATTCTGATGAATACGGAGTCACCTAGTGCAG,9970 fluorescence intensity (a.u.)
9,CGATCCCCATCTCTCCGGATTCCTTCTTTCCTTCCTTATTCGGAGTCACCTAGTGCAG,11100 fluorescence intensity (a.u.)
10,TCACCCCAACTTCCGTTTCGAACTCAGTCTCAGCTCACATCGGAGTCACCTAGTGCAG,10800 fluorescence intensity (a.u.)
11,CCCTTGTCCATCCGCCAACGCCACGTCACCTCCTCCGCTACGGAGTCACCTAGTGCAG,9650 fluorescence intensity (a.u.)
12,CATGTATTGTGTTATTTTGGATTTTACATTGGACGTAACTCGGAGTCACCTAGTGCAG,9340 fluorescence intensity (a.u.)
13,AACACCGTTCTATCATCCACAGCCACTGCATCATTTCATTCGGAGTCACCTAGTGCAG,9420 fluorescence intensity (a.u.)
14,CGGTTCTTTGTTGATGCTTTATTTTTCATCCATAAGTTTACGGAGTCACCTAGTGCAG,11200 fluorescence intensity (a.u.)
15,CGCAATCCAGAGTGCCACACTACCCAGCTCTTCTTCTTCTCGGAGTCACCTAGTGCAG,10300 fluorescence intensity (a.u.)
16,ATCATGTACATCTCATAGTCAACAATATTCATCACAATCTCGGAGTCACCTAGTGCAG,9470 fluorescence intensity (a.u.)
17,CCGATTCCTATGTTTTTCCTATGTTACAATCAAATAATTTCGGAGTCACCTAGTGCAG,9310 fluorescence intensity (a.u.)
18,CTCCTACCTTTTCTTCTTCCTTTCAATTCCTCCTGCTCTTCGGAGTCACCTAGTGCAG,12700 fluorescence intensity (a.u.)
19,ATATCTCTTTCAAACTTTCAACTTTTTCATCACATCAAAACGGAGTCACCTAGTGCAG,9590 fluorescence intensity (a.u.)
20,GACTTTTTTAAACATATTTGACCGTTCGTTTTATTCAAAACGGAGTCACCTAGTGCAG,8190 fluorescence intensity (a.u.)
21,CTCTTCTCACCGCTTCACCTGTGCCAAAACCCTTGAGCTCCGGAGTCACCTAGTGCAG,9920 fluorescence intensity (a.u.)

# A different layout for part of the listing above:
row | Sequence | binding signal
5 | AGGCGGAGAAAAGAGGGAGGGAGGGAGTGTGGACGTCTGACGGAGTCACCTAGTGCAG | 9530 fluorescence intensity (a.u.)
6 | TCCACCTCATCATTATTCAGTGCAATGCACATACATTTTACGGAGTCACCTAGTGCAG | 8590 fluorescence intensity (a.u.)
13 | AACACCGTTCTATCATCCACAGCCACTGCATCATTTCATTCGGAGTCACCTAGTGCAG | 9420 fluorescence intensity (a.u.)
18 | CTCCTACCTTTTCTTCTTCCTTTCAATTCCTCCTGCTCTTCGGAGTCACCTAGTGCAG | 12700 fluorescence intensity (a.u.)

# The list goes on.

row,Sequence,binding signal
1,TCACGAAGCCACATTGAACCTGCCTCGCCTCACGAAAACGCGGAGTCACCTAGTGCAG,9690 fluorescence intensity (a.u.)
2,GCACATGTTTGACCATTCATCTTATAAGAAAAAACTTTTGCGGAGTCACCTAGTGCAG,8090 fluorescence intensity (a.u.)
3,GCCTTTTCTTCTTTCTTTCATCTCTCGCCGAGCCGAGCCGCGGAGTCACCTAGTGCAG,10200 fluorescence intensity (a.u.)
4,TATATATATATATATATATATATATAATGGGCACCATCTACGGAGTCACCTAGTGCAG,8480 fluorescence intensity (a.u.)
5,ACTCTCTTCCTCACGACGCACCACGGGCTAGCCACTCCTACGGAGTCACCTAGTGCAG,8340 fluorescence intensity (a.u.)
6,CCCTGCATCCACTCCACAGTCCACCACACCACAAACGTATCGGAGTCACCTAGTGCAG,11100 fluorescence intensity (a.u.)
7,CGGAGAAGTTGCCTTTTGCTGTGTGCGCTGTGTTGGTGGGCGGAGTCACCTAGTGCAG,8710 fluorescence intensity (a.u.)
8,CCAGCACCATCGCTTCCAACCTCCGCATATATTAACCTCCCGGAGTCACCTAGTGCAG,11000 fluorescence intensity (a.u.)
9,TCTACTCATCATTGGTGGAGACAGTCTGACCTTTATCACGCGGAGTCACCTAGTGCAG,8300 fluorescence intensity (a.u.)
10,GGTGTTAGCTTTAGGTTTTGGTGTTTGGTTGGGTAATTTTCGGAGTCACCTAGTGCAG,17300 fluorescence intensity (a.u.)
11,TCATTGCCACCTCTGTCATGTGTAAATGATGCTTCTATTTCGGAGTCACCTAGTGCAG,10400 fluorescence intensity (a.u.)
12,GCTATAAATTTGTAGCCCGTTTTCCTTCTCTCTTCTTCTTCGGAGTCACCTAGTGCAG,10600 fluorescence intensity (a.u.)
13,GAGCCCACGTCATCCCATCCCCTCGCGAGTCGCCTTCGAGCGGAGTCACCTAGTGCAG,8350 fluorescence intensity (a.u.)
14,AGCTTCTTTTTCACCTCTATGATCTTCTCTCGCTCTGAAACGGAGTCACCTAGTGCAG,13100 fluorescence intensity (a.u.)
15,TTTCACCATGGTCCGATGTTTCTGCCACTTTCCGCATGCTCGGAGTCACCTAGTGCAG,15600 fluorescence intensity (a.u.)
16,CCTCTCCTCTCCATATGTTGAGTTGTTGACCTCCGGCGGCCGGAGTCACCTAGTGCAG,8300 fluorescence intensity (a.u.)
17,CGGCCGCAAGATTGGTCCCCTTTTCCTCCGGGCCTACCACCGGAGTCACCTAGTGCAG,8290 fluorescence intensity (a.u.)
18,CGCAACATCCGCGTCTGCCTCACTCCTGGCCAGCGCCTAGCGGAGTCACCTAGTGCAG,9420 fluorescence intensity (a.u.)
19,TTTTTTTTCATCCATATTTAATGCTCTATGCTTGTGTCCACGGAGTCACCTAGTGCAG,9650 fluorescence intensity (a.u.)
20,ATTTTTATAGTATTACATCTACGTGTAAAGTTTCATCTTTCGGAGTCACCTAGTGCAG,8260 fluorescence intensity (a.u.)
21,GGTTTAGGCGTTTCTTGGACGAACACCTCGAGCTCTTCTCCGGAGTCACCTAGTGCAG,9520 fluorescence intensity (a.u.)

# Exported bar-delimited: entries from further up
row | Sequence | binding signal
5 | ACTCTCTTCCTCACGACGCACCACGGGCTAGCCACTCCTACGGAGTCACCTAGTGCAG | 8340 fluorescence intensity (a.u.)
6 | CCCTGCATCCACTCCACAGTCCACCACACCACAAACGTATCGGAGTCACCTAGTGCAG | 11100 fluorescence intensity (a.u.)

# Continuation:

row,Sequence,binding signal
1,GGTTCCTGGGCCAACCGTGCCCCGTCCACGGCCCATTTTTCGGAGTCACCTAGTGCAG,9650 fluorescence intensity (a.u.)
2,GAGGGATAAAATAGTTAGTGTTATATAATTACTTCCTACTCGGAGTCACCTAGTGCAG,8660 fluorescence intensity (a.u.)
3,AAGGCAACTTTTGGTCTCTGTCTGATCATTTTTTTTTCCCCGGAGTCACCTAGTGCAG,9020 fluorescence intensity (a.u.)
4,TCGCAAACACATTTTCTCCTCCATCACAGTCGGCGTTTTGCGGAGTCACCTAGTGCAG,10700 fluorescence intensity (a.u.)
5,TACGCCCTAAGTTACATTCTCTACAATATTGTTCTCTAAACGGAGTCACCTAGTGCAG,8470 fluorescence intensity (a.u.)
6,ACACACCACTTATCCGCTGCAGCAACCTCGCAATCCCCTCCGGAGTCACCTAGTGCAG,9840 fluorescence intensity (a.u.)
7,GTGCTGCCTTTGATTTTTTGCTGTTACCATGGCGTGCATCCGGAGTCACCTAGTGCAG,8040 fluorescence intensity (a.u.)
8,AATCGTCTCCGGGCCCTTCTTTTTTCCCGGGAAGCGTCAGCGGAGTCACCTAGTGCAG,10100 fluorescence intensity (a.u.)
9,TCCATCCCATTCCCGCCATCTCTGCATCTTCTTCTTCTTCCGGAGTCACCTAGTGCAG,9910 fluorescence intensity (a.u.)
10,GCTTACACGTCTTCTTCGCCGCCGCCTCGCTTCTCTACCTCGGAGTCACCTAGTGCAG,10900 fluorescence intensity (a.u.)
11,CATTTCCACTTTATTTCATTTCTGCAATATGCAGCATACACGGAGTCACCTAGTGCAG,8370 fluorescence intensity (a.u.)
12,TTCATTATTTGTTTCTGCCTGGGCTCATCGATATGATCTCCGGAGTCACCTAGTGCAG,9410 fluorescence intensity (a.u.)
13,GACTTGGCTACACACGACTACTACCTATTTCTATTTCGATCGGAGTCACCTAGTGCAG,8240 fluorescence intensity (a.u.)
14,TCAATTGTGCAAACCGTTCTCAATTTTCACCTGCAATTGTCGGAGTCACCTAGTGCAG,9490 fluorescence intensity (a.u.)
15,ACTAGTACTCCACCATTTTTATTTTTTTATTCTTTTACTTCGGAGTCACCTAGTGCAG,9950 fluorescence intensity (a.u.)
16,GTCAAGTGTCTGGCTTTTTCTTATCTATCAATAACACTTTCGGAGTCACCTAGTGCAG,8390 fluorescence intensity (a.u.)
17,ATTAATTTTGACGCTTCATCCCCTCTGTCCCCAGCACCAGCGGAGTCACCTAGTGCAG,8630 fluorescence intensity (a.u.)
18,TACCTCCCACTGCCGTGAGCCGCCGCCATTGTTCCCTTAGCGGAGTCACCTAGTGCAG,8330 fluorescence intensity (a.u.)
19,TCAACCTCACGCTCAAGCTGCATCTCTCTCTCTCTCTCTCCGGAGTCACCTAGTGCAG,9880 fluorescence intensity (a.u.)
20,CACAAGTATAAATCCCACTCTCTGAAGCGGTGTGTGTTTTCGGAGTCACCTAGTGCAG,10000 fluorescence intensity (a.u.)
21,GGCATCAAACTATAGTTATCAAGTTTTTAACCATTGTTTTCGGAGTCACCTAGTGCAG,8640 fluorescence intensity (a.u.)

row,Sequence,binding signal
1,ATTTGCTACGTCGTCCGTGTTTGAGTCGGTTTTGAAGTTTCGGAGTCACCTAGTGCAG,8960 fluorescence intensity (a.u.)
2,GGCCGTTGGTCCCGCTGCCTCGTCTTCGTTTACCTTCGCCCGGAGTCACCTAGTGCAG,9950 fluorescence intensity (a.u.)
3,CTTCTCGCGATTTCTCTTCTAACTGTGCAATTAGTTTTTTCGGAGTCACCTAGTGCAG,8480 fluorescence intensity (a.u.)
4,CTTGGATCAGCCACCGGGCATCGATCAGTTGATCATCAAACGGAGTCACCTAGTGCAG,9570 fluorescence intensity (a.u.)
5,TCGTCATTGTCGCCATGTCCTTCCATCTACAAGCCCACGTCGGAGTCACCTAGTGCAG,11400 fluorescence intensity (a.u.)
6,ATCCATATCACCGACTTGATCACCAGCCACCAGGAAAACCCGGAGTCACCTAGTGCAG,10800 fluorescence intensity (a.u.)
7,TTCCTCATGTTATCTGTGGTTTAGATCGAGTTAGCATTTTCGGAGTCACCTAGTGCAG,8420 fluorescence intensity (a.u.)
8,CGCTGCCATCGCTTCGATCTACTCCCCTGCGCACCCATCGCGGAGTCACCTAGTGCAG,9210 fluorescence intensity (a.u.)
9,TCTCTTTTTTTGCAAAACCTTGCCTAATTGTTGCCATTGACGGAGTCACCTAGTGCAG,8600 fluorescence intensity (a.u.)
10,GTCTTGCTGGCTCATCCATGGCAACTCGCTAATCACGTGACGGAGTCACCTAGTGCAG,8350 fluorescence intensity (a.u.)
11,TTGGTTTTCACATTTTTTACTGCCAAATACTACCATTGACCGGAGTCACCTAGTGCAG,9520 fluorescence intensity (a.u.)
12,CCGCACCGGATCTCATCTCATTCTCGCCGTCTTCTCTTCTCGGAGTCACCTAGTGCAG,13300 fluorescence intensity (a.u.)
13,TTCTTATAGCTCAATTTTTTCCTTTCGTTTTGTACAGTTTCGGAGTCACCTAGTGCAG,13500 fluorescence intensity (a.u.)
14,CTCCTTCTTCTTCTTCTCAACGATGTCCTAGCTAGGAATACGGAGTCACCTAGTGCAG,9040 fluorescence intensity (a.u.)
15,AAACTGCCAGCTTTCTGCATCTCTCCGCCCTCATGATGCGCGGAGTCACCTAGTGCAG,9490 fluorescence intensity (a.u.)
16,GCGCAGCTAGCTACAGATCTATAGTTCGCTACTTTGCTTTCGGAGTCACCTAGTGCAG,8490 fluorescence intensity (a.u.)
17,TTAGCAAGGGAGTAGCTATATTTATGGCGCCATATTTTTCCGGAGTCACCTAGTGCAG,8950 fluorescence intensity (a.u.)
18,TTTTTCACAATTAATTCATTCGTTTGTATAGTCGATTATCCGGAGTCACCTAGTGCAG,9590 fluorescence intensity (a.u.)
19,CTTCACTTCTCCTCAAAGGGCTCATATTACTACCGAGTTGCGGAGTCACCTAGTGCAG,8420 fluorescence intensity (a.u.)
20,ATCTCCGCCGTCAACATTTGGACTCCTTGAAGAATATAGCCGGAGTCACCTAGTGCAG,8610 fluorescence intensity (a.u.)
21,CCAACCGCCGCGCCGCTTCGCTGTCTTCACCGTGCCGCTCCGGAGTCACCTAGTGCAG,8620 fluorescence intensity (a.u.)

# — paper PMC7819943, “Rice protein-binding microarrays: a tool to detect cis-acting elements near promoter regions in rice”
